Results: PubChem BioAssay AID1347076 (National Center for Advancing Translational Sciences (NCATS), 2019)
Hit rate of the full screen: of about 400,000 compounds, about 13,000 (3.2%) were called active. Inconclusive means that the source gave no clear call. Such entries were picked first, then a sample of the others. The call rests on the fitted dose curve; in most records, active means well fitted cell-killing curve with a large enough effect; inconclusive means small, poorly fitted or top-dose-only effect, or effect the other way; inactive means flat fitted curve, though single readings scatter. Where the call is inconclusive, the potency comes from a doubtful curve fit.
On the % scale 0 is the no-effect control and ±100 the full control effect; potency means the concentration at half of the fitted maximal effect.

Assay: qHTS assay for MDR1-selective chemotherapeutics: Primary screen using the drug-selected MDR subline cells KB-V1; further: nearly all actives have a fitted effect of over 60% in size
Conditions: KB-V1 MDR cells viability, CellTiter-Glo, 72 h; activity change, negative = cytotoxicity: at 46.1 µM (top of the series)
Summary of the method: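 Cytotoxicity via CellTiter-Glo luminescence after 72 h compound exposure at 37 degrees C. Cells: drug-selected KB-V1 line, DMEM phenol-red free plus 10% FBS. Compounds tested at multiple concentrations; normalized data fitted to concentration-effect curves.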
With `CCc1nn(CC(=O)Nc2ccc(Br)c(C)c2)c(=N)s1` the Potency was inconclusive: 29.1 µM [cytotoxic, single point].
With `COc1ccc(-n2c(SCC(=O)NCC3CCCO3)nc3c(c2=O)SCC3)cc1` (stereo unspecified) the activity change, negative = cytotoxicity was inconclusive: -16.7%.
In the case of `Cc1ccc(C)c(NC(=O)CN(C)C(=O)c2ccncc2)c1`, the Potency is reported as inconclusive: 8.2 µM [rising, partial curve].
In the case of `Cc1cc(Br)cn2c(Cc3ccccc3)c(C3CCCCC3)nc12`, the Potency is reported as inconclusive: 18.4 µM [cytotoxic, partial curve, poor fit].
With `COC(=O)c1c(NC(=O)CSc2ncn[nH]2)sc(C)c1C` the Potency was active: 20.6 µM.
For `O=C(NCc1cc(Cl)cc(Cl)c1)c1ccc2sc([C@H]3C[C@H](O)[C@@H](CO)O3)nc2c1`, the Potency was inconclusive: 18.4 µM [rising, single point].
With `COc1ccc(C(=O)NCc2ccc3c(c2)OCO3)c(OC)c1` the Potency was inconclusive: 29.1 µM [cytotoxic, partial curve, poor fit].
With `CCOC(=O)CSc1nc2sc3c(c2c(=O)n1-c1ccccc1)CC(C(C)C)OC3` (stereo unspecified) the Potency was inconclusive: 20.6 µM [rising, single point].
In the case of `O=c1[nH]c(/C=C\c2cccnc2)c([N+](=O)[O-])c(=O)[nH]1`, the Potency is reported as inconclusive: 32.6 µM [rising, single point].
For `Cc1ccc(C(OCC(O)CNC(CO)C(O)c2ccc([N+](=O)[O-])cc2)c2ccccc2)cc1` (stereo unspecified), the Potency was active: 16.4 µM.
For `CCN1C(=O)/C(=C/c2nc3ccccc3c(=O)n2-c2ccccc2)c2ccccc21`, the “activity change, negative = cytotoxicity” value was inactive: 0%.
In the case of `CC(=O)Nc1ccc(Nc2nc(C)c([N+](=O)[O-])c(Nc3ccccc3)n2)cc1`, the Potency is reported as inconclusive: 29.1 µM [cytotoxic, single point].
In the case of `COc1ccc(N2CCN(C(=S)Nc3ccc(C)cc3C)CC2)cc1`, the Potency is reported as inconclusive: 29.1 µM [rising, single point].
For `COc1ccc(CCNC(=O)Cn2nnc(-c3cccc(OC)c3OC)n2)cc1OC`, the Potency was inconclusive: 23.1 µM [cytotoxic, partial curve].
For `COc1ccc(OCCSc2ncccn2)cc1`, the “activity change, negative = cytotoxicity” value was inactive: -28.2%.
With `O=S(=O)(c1ccc(Cl)cc1)c1nc(-c2ccccc2F)oc1NCCN1CCOCC1` the Potency was inconclusive: 1.46 µM [cytotoxic, full curve].
With `CCCCCC(=O)Nc1cccc2ccccc12` the Potency was inconclusive: 3.26 µM [rising, partial curve, poor fit].
In the case of `COc1ccc(C(=O)CC(=O)C(=O)Nc2ccccc2OC)cc1`, the Potency is reported as inconclusive: 29.1 µM [cytotoxic, single point].
With `CC1CCN(S(=O)(=O)c2ccc(C(=O)Nc3nnc(-c4ccncc4)o3)cc2)CC1` the Potency was inconclusive: 16.4 µM [cytotoxic, single point].
In the case of `COCCCNC(=O)C[C@H]1C[C@H](C(=O)N(C(C)C)C(C)C)[C@@]2(C)c3[nH]c4cc(-c5ccco5)ccc4c3CCN2C1=O`, the “activity change, negative = cytotoxicity” value is reported as inactive: -5.88%.
For `C(=N\Nc1ccccn1)/c1c[nH]c2ccccc12`, the Potency was inconclusive: 29.1 µM [cytotoxic, single point].
With `CCNC(=O)n1nccc1C(C)Oc1cccc(C(F)(F)F)c1` (stereo unspecified) the Potency was inconclusive: 20.6 µM [cytotoxic, single point].
With `CSCc1cc(N2CCOCC2)nc(SCc2ccc(Cl)c(Cl)c2)n1` the Potency was inconclusive: 20.6 µM [cytotoxic, single point].
In the case of `O=C(O)Cn1nnc(-c2ccc(OCc3ccccc3Cl)cc2)n1`, the “activity change, negative = cytotoxicity” value is reported as inactive: 4.75%.
With `Cc1cc(-c2ccc(S(=O)(=O)Nc3ccccc3F)s2)on1` the “activity change, negative = cytotoxicity” value was inactive: 17.4%.
With `Cc1ccc(CNC(=O)C2CCCN(C(=O)Nc3ccc(F)cc3)C2)cc1` (stereo unspecified) the Potency was inconclusive: 20.6 µM [cytotoxic, single point].
In the case of `COc1cccc(/C=N/n2c(N)c(S(=O)(=O)c3cccs3)c3nc4ccccc4nc32)c1OC`, the Potency is reported as inconclusive: 20.6 µM [cytotoxic, partial curve, poor fit].
In the case of `O=S(=O)(c1cccs1)N1CCN(c2ccnc3cc(Cl)ccc23)CC1`, the Potency is reported as inconclusive: 10.3 µM [cytotoxic, partial curve].
For `Nc1ccn([C@@H]2O[C@H](CNC(=O)[C@H]3CCC(=O)N3)[C@@H](O)[C@H]2O)c(=O)n1`, the Potency was inconclusive: 2.31 µM [rising, full curve, poor fit].
In the case of `COc1ccc2cc(C(=O)C3CCCN(C(=O)c4cnn(C(C)C)c4)C3)ccc2c1` (stereo unspecified), the Potency is reported as inconclusive: 29.1 µM [cytotoxic, single point].
In the case of `CCCN(CCC)S(=O)(=O)c1ccc(NC(=O)C2CCCO2)cc1` (stereo unspecified), the Potency is reported as inconclusive: 18.4 µM [cytotoxic, partial curve, poor fit].
For `O=C(CSCc1ccc(Cl)cc1)N1CCOCC1`, the “activity change, negative = cytotoxicity” value was inactive: -5.76%.
For `Cc1nn(Cc2ccc(F)cc2)c(C)c1NC(=O)c1nn(C)cc1Cl`, the Potency was active: 9.2 µM.
With `CCNC(=S)N(CCN(CC)CC)Cc1cc2cc3c(cc2[nH]c1=O)OCO3` the Potency was inconclusive: 20.6 µM [rising, single point].
In the case of `CC(NC(=O)Cc1ccc(NC(=O)N2CCSc3ncccc32)cc1)c1ccccc1` (stereo unspecified), the “activity change, negative = cytotoxicity” value is reported as inactive: 0%.
For `O=C(Nc1cccc(S(=O)(=O)N2CCCC2)c1)c1ccccc1OC(F)F`, the Potency was inconclusive: 9.2 µM [cytotoxic, partial curve, poor fit].
In the case of `O=C(ONC(=O)C1C2C=CC(C2)C1C(=O)NOC(=O)c1ccccc1)c1ccccc1` (stereo unspecified), the Potency is reported as inconclusive: 3.26 µM [cytotoxic, partial curve, poor fit].
With `CCc1ccc(NC(=O)c2ccccc2NC(=O)C2CCCO2)cc1` (stereo unspecified) the Potency was active: 6.51 µM.
With `CCOc1ccc(/C=C/C(=O)Nc2cccc(C(C)=O)c2)cc1` the Potency was inconclusive: 25.9 µM [cytotoxic, partial curve, poor fit].
For `Cc1ccc2nc(NC(=O)c3cccc(-c4cc5ccccc5oc4=O)c3)sc2c1`, the Potency was inconclusive: 20.6 µM [cytotoxic, partial curve].
In the case of `O=S(=O)(c1ccc(F)cc1F)N1CCN(CCO)CC1`, the “activity change, negative = cytotoxicity” value is reported as inactive: -0.824%.
With `COc1ccccc1N1CCN(C(c2ccc(Cl)cc2)c2nnnn2C(C)(C)C)CC1` (stereo unspecified) the Potency was active: 18.4 µM.
With `Cc1cccc(NC(=S)NNC(=O)c2ccccc2Br)c1` the Potency was inconclusive: 20.6 µM [cytotoxic, partial curve, poor fit].
For `O=C(NCc1ccc(Cl)cc1)c1ccc(OCC2CCCO2)cc1` (stereo unspecified), the Potency was active: 16.4 µM.
In the case of `O=C(CN1C(=O)NC2(CCc3ccccc32)C1=O)NCCc1ccccc1` (stereo unspecified), the Potency is reported as inconclusive: 25.9 µM [rising, single point].
With `O=C(Cc1ccccc1F)Nc1ccc(Cl)nc1` the Potency was inconclusive: 20.6 µM [cytotoxic, single point].
In the case of `O=C(Nc1ccc(N2CCN(C(=O)c3ccco3)CC2)cc1)c1cccc(F)c1`, the Potency is reported as inconclusive: 29.1 µM [cytotoxic, single point].
In the case of `CC(C)(C)NC(=O)NC(=O)CSc1n[nH]c(-c2ccccc2Br)n1`, the Potency is reported as inconclusive: 18.4 µM [cytotoxic, single point].
In the case of `CC(C)C[C@@H]1COc2cc(N(C)CCO)ccc2S(=O)(=O)N1`, the Potency is reported as inconclusive: 32.6 µM [rising, single point].
For `COc1ccc(Cl)cc1NC(=O)C/C(C)=N/NC(=O)c1ccccc1[N+](=O)[O-]`, the Potency was inconclusive: 20.6 µM [rising, single point].
For `COc1ccc(S(=O)(=O)N2CCCCCC2)cc1NC(=O)Cc1cc(OC)c(OC)c(OC)c1`, the Potency was active: 2.31 µM.
For `Cc1cc(C)n(-c2nc3ccccc3c(=O)n2OCc2ccc(F)cc2)n1`, the Potency was inconclusive: 8.2 µM [cytotoxic, partial curve].
For `S=C1SCN(Cc2cccnc2)CN1Cc1cccnc1`, the Potency was inconclusive: 29.1 µM [cytotoxic, single point].
With `CC(=O)c1ccc(N2CCN(C(=O)C3(S(=O)(=O)c4ccc(Cl)cc4)CC3)CC2)cc1` the Potency was inconclusive: 20.6 µM [cytotoxic, partial curve, poor fit].
In the case of `O=C(NCc1ccco1)/C(=C/c1ccco1)NC(=O)c1ccc(Br)o1`, the Potency is reported as inconclusive: 13 µM [cytotoxic, partial curve].
In the case of `CCCc1cc(C(=O)Nc2cccnc2)no1`, the Potency is reported as inconclusive: 29.1 µM [rising, single point].
In the case of `Cc1cc(N/N=C/c2ccccc2O)nc(N2CCOCC2)n1`, the “activity change, negative = cytotoxicity” value is reported as inactive: -12.3%.
With `CCN(C(=O)c1cc2c(C)nc3ccccc3c2o1)c1cc(Cl)ccc1OC` the Potency was inconclusive: 8.2 µM [cytotoxic, partial curve, poor fit].
For `COC(=O)c1ccc(C2c3c(-c4ccccc4O)n[nH]c3C(=O)N2Cc2ccncc2)cc1` (stereo unspecified), the Potency was inconclusive: 20.6 µM [rising, single point].
With `O=C(CSc1nc(-c2cccc(F)c2)[nH]c1-c1ccccc1)Nc1ccc2c(c1)OCCO2` the Potency was inconclusive: 32.6 µM [cytotoxic, single point].
With `Cc1ccc(NC(=O)Nc2nnc(-c3ccncc3)s2)cc1C` the Potency was inconclusive: 18.4 µM [cytotoxic, partial curve, poor fit].
With `COc1ccc(NC(=O)Cc2c(O)c3ccccc3[nH]c2=O)cc1` the Potency was inconclusive: 29.1 µM [rising, single point].
In the case of `CCC(=O)N1CCc2cc(OC)c(OC)cc2C1COc1ccccc1OC` (stereo unspecified), the Potency is reported as inconclusive: 9.2 µM [cytotoxic, partial curve].
In the case of `CSCCC(C(=O)NC(C)(C)C)n1c(-c2ccc(C)cc2)nc2ccccc21` (stereo unspecified), the Potency is reported as inconclusive: 7.31 µM [cytotoxic, partial curve].
In the case of `COC(=O)c1cc(S(=O)(=O)C(C)C)c(S(C)=O)s1` (stereo unspecified), the “activity change, negative = cytotoxicity” value is reported as inactive: 0%.
With `CCOC(=O)c1c(C)[nH]c(C(=O)CSc2ccc(Cl)cc2)c1C` the Potency was active: 18.4 µM.
